{"source": "PubChem BioAssay AID686938 | Drosophila RNAi Screening Center, 2013", "screen": "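Knock-downs reducing store-operated calcium influx in Drosophila cells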 (primary screen)", "system": "Drosophila S2R+ cells", "reagent": "long dsRNA against Drosophila genes, about 0.25 µg dsRNA per well, roughly 10,000 cells", "time to read-out": "5 days of knock-down before the calcium assay", "treatment": "thapsigargin (SERCA pump blocker) to empty calcium stores; entry signal taken 4 min after adding it", "measured": "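Duplicate raw fluo-4 intensities per well from a plate reader, at rest and four minutes after thapsigargin emptied calcium stores; entry-to-rest ratio filled for only some wells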", "direction": "calcium entry signal: higher = stronger calcium signal after store depletion; resting calcium signal: higher = higher resting calcium signal", "units": "calcium entry signal in fluorescence units; resting calcium signal in fluorescence units", "rule for the call": "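Hit if the duplicate-averaged plate z-score for entry over resting signal is under −3; wells with weak total dye signal (Fmax z < −2) or more than 5 off-targets removed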", "calls": "active = strongly reduced calcium entry; inactive = no strong reduction", "note": "The screen tested about 23,000 reagents; shown is an unselected part of those that have a named target and a result. Over the whole deposit, 75 (0.33%) got an active call. 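Raw plate signals without normalisation; calls rest on plate z-scores that were not deposited; ratio present for only 364 wells.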 Not stated in the record: the dose of the treatment."}
{"Gene":"lili (lilipod)","dsRNA":"DRSC14143","calcium entry signal, replicate 1":4.16e7,"calcium entry signal, replicate 2":4.13e7,"resting calcium signal, replicate 1":1.92e7,"resting calcium signal, replicate 2":1.83e7,"outcome":"inactive"}
{"Gene":"CG12105","dsRNA":"DRSC08255","calcium entry signal, replicate 1":3.24e7,"calcium entry signal, replicate 2":2.71e7,"resting calcium signal, replicate 1":1.50e7,"resting calcium signal, replicate 2":1.33e7,"outcome":"inactive"}
{"Gene":"sunz (sungrazer)","dsRNA":"DRSC12559","calcium entry signal, replicate 1":4.77e7,"calcium entry signal, replicate 2":3.34e7,"resting calcium signal, replicate 1":2.28e7,"resting calcium signal, replicate 2":1.60e7,"outcome":"inactive"}
{"Gene":"dao (down and out)","dsRNA":"DRSC01960","calcium entry signal, replicate 1":4.30e7,"calcium entry signal, replicate 2":2.52e7,"resting calcium signal, replicate 1":1.91e7,"resting calcium signal, replicate 2":1.30e7,"outcome":"inactive"}
{"Gene":"Nrt (Neurotactin)","dsRNA":"DRSC11237","calcium entry signal, replicate 1":2.50e7,"calcium entry signal, replicate 2":3.38e7,"resting calcium signal, replicate 1":1.22e7,"resting calcium signal, replicate 2":2.23e7,"outcome":"inactive"}
{"Gene":"Obp18a (Odorant-binding protein 18a)","dsRNA":"DRSC19736","calcium entry signal, replicate 1":5.61e7,"calcium entry signal, replicate 2":5.03e7,"resting calcium signal, replicate 1":2.51e7,"resting calcium signal, replicate 2":2.00e7,"outcome":"inactive"}
{"Gene":"Act87E (Actin 87E)","dsRNA":"DRSC22578","calcium entry signal, replicate 1":2.97e7,"calcium entry signal, replicate 2":3.10e7,"resting calcium signal, replicate 1":1.60e7,"resting calcium signal, replicate 2":1.46e7,"outcome":"inactive"}
{"Gene":"Gr97a (Gustatory receptor 97a)","dsRNA":"DRSC13802","calcium entry signal, replicate 1":2.59e7,"calcium entry signal, replicate 2":2.87e7,"resting calcium signal, replicate 1":1.23e7,"resting calcium signal, replicate 2":1.40e7,"outcome":"inactive"}
{"Gene":"CG7488","dsRNA":"DRSC16250","calcium entry signal, replicate 1":2.38e7,"calcium entry signal, replicate 2":2.68e7,"resting calcium signal, replicate 1":1.21e7,"resting calcium signal, replicate 2":4.09e7,"outcome":"inactive"}
{"Gene":"shot (short stop)","dsRNA":"DRSC05459","calcium entry signal, replicate 1":5.31e7,"calcium entry signal, replicate 2":4.33e7,"resting calcium signal, replicate 1":2.64e7,"resting calcium signal, replicate 2":2.14e7,"outcome":"inactive"}
{"Gene":"shot (short stop)","dsRNA":"DRSC05460","calcium entry signal, replicate 1":4.35e7,"calcium entry signal, replicate 2":5.54e7,"resting calcium signal, replicate 1":2.39e7,"resting calcium signal, replicate 2":2.47e7,"outcome":"inactive"}
{"Gene":"shot (short stop)","dsRNA":"DRSC07682","calcium entry signal, replicate 1":3.31e7,"calcium entry signal, replicate 2":3.08e7,"resting calcium signal, replicate 1":1.41e7,"resting calcium signal, replicate 2":1.50e7,"outcome":"inactive"}

4 neighbouring entries already listed, for reference:
{"Gene":"lili (lilipod)","dsRNA":"DRSC14143","calcium entry signal, replicate 1":4.16e7,"calcium entry signal, replicate 2":4.13e7,"resting calcium signal, replicate 1":1.92e7,"resting calcium signal, replicate 2":1.83e7,"outcome":"inactive"}
{"Gene":"CG12105","dsRNA":"DRSC08255","calcium entry signal, replicate 1":3.24e7,"calcium entry signal, replicate 2":2.71e7,"resting calcium signal, replicate 1":1.50e7,"resting calcium signal, replicate 2":1.33e7,"outcome":"inactive"}
{"Gene":"sunz (sungrazer)","dsRNA":"DRSC12559","calcium entry signal, replicate 1":4.77e7,"calcium entry signal, replicate 2":3.34e7,"resting calcium signal, replicate 1":2.28e7,"resting calcium signal, replicate 2":1.60e7,"outcome":"inactive"}
{"Gene":"dao (down and out)","dsRNA":"DRSC01960","calcium entry signal, replicate 1":4.30e7,"calcium entry signal, replicate 2":2.52e7,"resting calcium signal, replicate 1":1.91e7,"resting calcium signal, replicate 2":1.30e7,"outcome":"inactive"}

The listing continues.
{"Gene":"pygo (pygopus)","dsRNA":"DRSC14322","calcium entry signal, replicate 1":2.36e7,"calcium entry signal, replicate 2":2.20e7,"resting calcium signal, replicate 1":1.41e7,"resting calcium signal, replicate 2":1.34e7,"outcome":"inactive"}
{"Gene":"Ndg (Nidogen)","dsRNA":"DRSC06223","calcium entry signal, replicate 1":5.19e7,"calcium entry signal, replicate 2":4.21e7,"resting calcium signal, replicate 1":2.14e7,"resting calcium signal, replicate 2":2.03e7,"outcome":"inactive"}
{"Gene":"gbb (glass bottom boat)","dsRNA":"DRSC04687","calcium entry signal, replicate 1":4.52e7,"calcium entry signal, replicate 2":4.91e7,"resting calcium signal, replicate 1":2.24e7,"resting calcium signal, replicate 2":2.22e7,"outcome":"inactive"}
{"Gene":"Vti1a (Vesicle transport through interaction with t-SNAREs 1a)","dsRNA":"DRSC08563","calcium entry signal, replicate 1":4.44e7,"calcium entry signal, replicate 2":3.57e7,"resting calcium signal, replicate 1":2.18e7,"resting calcium signal, replicate 2":1.80e7,"outcome":"inactive"}
{"Gene":"RpL5 (Ribosomal protein L5)","dsRNA":"DRSC03801","calcium entry signal, replicate 1":1.34e7,"calcium entry signal, replicate 2":1.61e7,"resting calcium signal, replicate 1":1.06e7,"resting calcium signal, replicate 2":1.08e7,"outcome":"inactive"}
{"Gene":"Axud1 (AXIN1 up-regulated 1)","dsRNA":"DRSC00270","calcium entry signal, replicate 1":3.38e7,"calcium entry signal, replicate 2":3.18e7,"resting calcium signal, replicate 1":1.66e7,"resting calcium signal, replicate 2":1.47e7,"outcome":"inactive"}
{"Gene":"CR12798 (pseudo)","dsRNA":"DRSC21078","calcium entry signal, replicate 1":5.13e7,"calcium entry signal, replicate 2":5.19e7,"resting calcium signal, replicate 1":2.41e7,"resting calcium signal, replicate 2":2.14e7,"outcome":"inactive"}
{"Gene":"tio (tiptop)","dsRNA":"DRSC03739","calcium entry signal, replicate 1":3.00e7,"calcium entry signal, replicate 2":4.24e7,"resting calcium signal, replicate 1":1.38e7,"resting calcium signal, replicate 2":1.73e7,"outcome":"inactive"}
{"Gene":"Kr-h1 (Kruppel homolog 1)","dsRNA":"DRSC00908","calcium entry signal, replicate 1":3.62e7,"calcium entry signal, replicate 2":3.76e7,"resting calcium signal, replicate 1":2.05e7,"resting calcium signal, replicate 2":1.93e7,"outcome":"inactive"}
{"Gene":"Kr-h1 (Kruppel homolog 1)","dsRNA":"DRSC03355","calcium entry signal, replicate 1":3.66e7,"resting calcium signal, replicate 1":2.60e7,"outcome":"inactive"}
